Experimental findings from PMC12040169 (PLOS Biology, 2025) are described below.

Some of the results follow.

The assay concerns T1, CTL2-GFP (C. trachomatis L2/434/Bu, GFP-expressing).
T1 construct: L2/434/Bu, GFP-expressing
The arrangement: species or system HeLa; Intracellular C. trachomatis growth in HeLa cells, bulk GFP fluorescence relative to DMSO. To be noted: bulk GFP, single well; 28.5 h, 10 µM; inhibitor.
On to `Cn1c(CCC(=O)NCC(C)(C)N2CCCCC2)nc2ccccc21` [CBK281877], for which the “% of control remaining” value was 105.374%.

As to `Cc1nnc(Sc2ccc([N+](=O)[O-])cc2Cl)n1Cc1ccccc1` [CBK269694], the “% of control remaining” value is recorded as 124.325%.

Turning to `CN1C(=O)c2ccccc2OCCCCC[C@H]2[C@@H]1CCCN2C(=O)c1cc2c([nH]c1=O)CCC2` [CBK292034], the “% of control remaining” value is 99.6157%.

Consider `Cc1cc2ncn(CC(=O)N3CCC(F)CC3)c2cc1C` [CBK200266], for which the “% of control remaining” value is 90.0868%.

As for `CCCC1=NN(c2ccc([N+](=O)[O-])cc2)C(=O)/C1=C/NC1CC(C)(C)NC(C)(C)C1` [CBK262896], the “% of control remaining” value is 121.221%.

Turning to `COC(=O)c1cc(C)sc1NC(=S)Nc1cnn(Cc2cccc3ccccc23)c1` [CBK267098], the “% of control remaining” value is 185.772%.

Regarding `c1ccc(CNc2c(-c3ccco3)nc3cnccn23)cc1` [CBK283933], the “% of control remaining” value was found to be 133.921%.

As to `CC(=O)NCCNS(=O)(=O)c1ccc(C(C)C)cc1` [CBK043726], the “% of control remaining” value is listed as 180.319%.

Turning to `O=C(c1ccccc1F)N1CCCC1Cn1c(=O)oc2ccccc21` (centres unmarked) [CBK282926], the “% of control remaining” value is given as 105.712%.

For the molecule `Cc1cc(C)n(CC2CN(CC(=O)NCc3cccs3)CCO2)n1` (centres unmarked) [CBK304902], the “% of control remaining” value stood at 111.009%.

With `COc1cccc(/C=C2/NC(=O)N(c3cccc(Cl)c3)C2=O)c1OCc1cccc(C(=O)O)c1` [CBK265626], the “% of control remaining” value is 110.935%.

`Cc1sc(NC(=O)c2ccc3c(c2)OCCO3)c(C(=O)NCc2cccnc2)c1C` [CBK268181]: the “% of control remaining” value is 129.423%.

For `COC(=O)c1ccc(N2CCOCC2)c(NC(=O)c2cccnc2)c1` [CBK270257], the “% of control remaining” value amounted to 129.259%.

In the case of `CC(C)(C)c1ccc(C(=O)CC(C(=O)O)N2CCN(c3cccc(Cl)c3)CC2)cc1` (centres unmarked) [CBK077385], the “% of control remaining” value was determined as 111.9%.

Take `COc1ccc(CNC(=O)c2sccc2S(=O)(=O)N2CCCCC2)cc1` [CBK305904]: the “% of control remaining” value is recorded as 101.265%.

With `O=C(O)CCSc1nc(-c2ccccc2)c(-c2ccccc2)[nH]1` [CBK264228], the “% of control remaining” value worked out at 119.8%.

As for `CN(C)c1cccc2c(S(=O)(=O)n3ccn(-c4cccc(C(F)(F)F)c4)c3=O)cccc12` [CBK106578], the “% of control remaining” value is listed as 107.004%.

With `Cn1ncc2c1CCCN(C(=O)COc1cccc(F)c1)C2` [CBK285257], the “% of control remaining” value came out at 132.483%.

As to `CC(=O)Nc1ccc(S(=O)(=O)NCCC#N)cc1Cl` [CBK044272], the “% of control remaining” value was found to be 114.291%.

As to `COC(=O)[C@@H](C)NC(=O)[C@H]1CN(C(=O)Nc2ccccc2)CCN1C(=O)NC(C)C` [CBK289631], the “% of control remaining” value was determined as 113.166%.

Consider `Cc1ccc([N+](=O)[O-])cc1NC(=O)CCn1cnc2ccccc2c1=O` [CBK267644], for which the “% of control remaining” value came out at 129.519%.

As for `O=C1NCCCc2nc(Nc3ccccc3)sc21` [CBK087091], the “% of control remaining” value is given as 108.019%.

Regarding `Cc1cc(C[C@@H]2CCC[C@H]2NCc2cccnc2)on1` [CBK284933], the “% of control remaining” value is 97.0745%.

For `COc1cc(Nc2nc(-c3cccc4ccccc34)cn3ccnc23)cc(OC)c1OC` [CBK036608], the “% of control remaining” value amounted to 81.9785%.

As for `CC1(C(=O)NC(c2ccncc2)c2ccc(Cl)cc2)CCCO1` (centres unmarked) [CBK282710], the “% of control remaining” value stood at 151.936%.

`CC(C)NC(=O)Cn1c(-c2ccc(F)cc2)cc2cccnc21` [CBK284862]: the “% of control remaining” value turned out to be 115.798%.

Take `COC(=O)[C@H]1CN(C(=O)c2ccccn2)C[C@@H]1c1ccc(F)cc1` [CBK283727]: the “% of control remaining” value came out at 123.046%.

With `O=C(NCc1nnc(-c2cccs2)o1)c1cccc(-c2ccc(F)cc2)c1` [CBK286296], the “% of control remaining” value worked out at 123.808%.

For the molecule `Cc1ccc(C(=O)c2cccc(N3C(=O)c4ccc(C(=O)O)cc4C3=O)c2)cc1C` [CBK286994], the “% of control remaining” value is recorded as 112.452%.

On to `COc1ccc(OC)c(NC(=O)c2c[nH]c(=O)n(-c3ccc(F)cc3)c2=O)c1` [CBK287552], for which the “% of control remaining” value is listed as 135.091%.

Consider `Nc1ccc(Sc2nccnc2N2CCCC2)cc1` [CBK089520], for which the “% of control remaining” value worked out at 111.464%.

As to `CCC(CCC(=O)Nc1ccccc1Cl)C(=O)O` (centres unmarked) [CBK286767], the “% of control remaining” value was 157.269%.

For the molecule `CSc1nc(N)nc2sc3c(O)cc(=O)[nH]c3c12` [CBK267457], the “% of control remaining” value amounted to 138.718%.

On to `O=[N+]([O-])c1ccc(CN2CCN(Cc3cccnc3)CC2)cc1` [CBK263161], for which the “% of control remaining” value came out at 110.624%.

`Cc1sc(NC(=O)C2C3C=CC(C3)C2C(=O)O)c(C(N)=O)c1C` (centres unmarked) [CBK263685]: the “% of control remaining” value is on record as 100%.

For `COc1ccc(OC)c(CCO)c1` [CBK003033], the “% of control remaining” value is reported as 118.378%.

Take `CN1CCN(C(=O)c2ccc(-c3cnc4[nH]c(=O)n(CCN5CCOCC5)c4n3)cc2)CC1` [CBK064800]: the “% of control remaining” value came to 122.105%.

Turning to `O=C1CC(N2CCN(CCc3ccncc3)CC2)C(=O)N1c1ccc(Cl)cc1` (centres unmarked) [CBK270078], the “% of control remaining” value is 177.109%.

As for `O=C(Cn1cnnn1)NC1CCCC1` [CBK200372], the “% of control remaining” value worked out at 93.4043%.

With `COc1ncc(-c2ccc(Nc3ccc(N4CCOCC4)cc3)nc2)c(OC)n1` [CBK036988], the “% of control remaining” value was 199.122%.

As for `CC(C)[C@H](CO)NC(=O)c1cnc(-c2ccccc2)c(-c2ccncc2)c1` [CBK036691], the “% of control remaining” value is 153.311%.

`Cc1ccc(NC(=O)CN2C(=O)N/C(=C\c3cc(Br)cc(Cl)c3O)C2=O)cc1` [CBK265018]: the “% of control remaining” value is on record as 100%.

Turning to `O=C(Cn1nc(-c2ccco2)ccc1=O)Nc1ccccn1` [CBK287985], the “% of control remaining” value was 147.643%.

In the case of `CC(C)(Oc1ccc(Cl)cc1)C(=O)Nc1ccc(CN2CCOCC2)cc1` [CBK269940], the “% of control remaining” value is given as 125.655%.

Take `O=C(CCN1C(=O)C2C3CCC(C3)C2C1=O)OCC(=O)c1ccc(Cl)c([N+](=O)[O-])c1` (centres unmarked) [CBK264124]: the “% of control remaining” value was 100%.

On to `O=C(O)CCC(=O)NCCCc1ccccc1` [CBK265465], for which the “% of control remaining” value is 124.468%.

Regarding `Cc1ccccc1C(=O)N1CCN(S(=O)(=O)c2sc(C(=O)O)c(C)c2C(=O)O)CC1` [CBK297146], the “% of control remaining” value was 145.404%.

In the case of `Nc1nc2cccnc2cc1-c1ccsc1` [CBK081214], the “% of control remaining” value stood at 147.685%.

On to `Cc1nc(N2CCOCC2)[nH]c(=O)c1CCC(=O)Nc1ccccc1F` [CBK305003], for which the “% of control remaining” value is 153.923%.

Turning to `COc1cccc(CNC(=O)c2cn[nH]c2-c2cccc(C)c2)c1` [CBK288056], the “% of control remaining” value was 101.322%.
